{"source": "paper PMC12299168", "about": "(Pharmaceutics, 2025)", "origin": "cited, not measured here", "details": "oral administration, children aged 6–11 years; cited from earlier work"}
{"molecule": "O=C(O)COCCN1CCN([C@H](c2ccccc2)c2ccc(Cl)cc2)CC1", "note": "[LCZ, Levocetirizine]", "values": [{"measurement": "Cmax", "result": "450 ± 0.1", "unit": "ng/mL"}]}
